These are yes or no findings as the source states them, for the method shown. Binding seen in cells or lysates may run through a third protein. Some entries that bind do so weakly or less than the wild type.
Molecular target: T1, deubiquitinating enzyme cylindromatosis (CYLD) (human (endogenous in THP-1)) (UniProt Q9NQC7)
T1 sequence: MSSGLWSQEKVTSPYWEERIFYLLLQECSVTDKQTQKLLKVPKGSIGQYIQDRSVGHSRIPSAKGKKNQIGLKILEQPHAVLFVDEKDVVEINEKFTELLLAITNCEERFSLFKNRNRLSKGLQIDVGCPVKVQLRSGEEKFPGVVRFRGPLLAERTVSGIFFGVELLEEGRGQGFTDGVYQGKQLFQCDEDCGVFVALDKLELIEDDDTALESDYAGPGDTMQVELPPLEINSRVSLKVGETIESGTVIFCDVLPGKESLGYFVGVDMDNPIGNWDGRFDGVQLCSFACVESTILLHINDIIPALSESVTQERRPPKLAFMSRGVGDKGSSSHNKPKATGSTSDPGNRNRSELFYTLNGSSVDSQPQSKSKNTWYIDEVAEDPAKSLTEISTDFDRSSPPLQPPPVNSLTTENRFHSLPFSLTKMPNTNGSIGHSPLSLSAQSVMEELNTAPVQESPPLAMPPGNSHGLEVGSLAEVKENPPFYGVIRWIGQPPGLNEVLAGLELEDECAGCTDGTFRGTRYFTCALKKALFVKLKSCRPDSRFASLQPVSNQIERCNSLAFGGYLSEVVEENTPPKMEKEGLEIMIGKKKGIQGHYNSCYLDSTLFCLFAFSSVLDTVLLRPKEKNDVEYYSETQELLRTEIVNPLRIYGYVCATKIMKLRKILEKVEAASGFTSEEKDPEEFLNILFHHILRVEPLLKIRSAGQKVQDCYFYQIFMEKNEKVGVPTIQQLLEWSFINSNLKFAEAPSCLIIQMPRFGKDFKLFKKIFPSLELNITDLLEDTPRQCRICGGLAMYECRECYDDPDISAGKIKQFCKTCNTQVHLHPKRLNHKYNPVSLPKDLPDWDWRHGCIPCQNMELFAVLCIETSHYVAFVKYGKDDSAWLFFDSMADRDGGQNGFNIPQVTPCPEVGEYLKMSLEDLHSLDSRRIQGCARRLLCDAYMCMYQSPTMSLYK
Experiment: co-IP; immunoprecipitation with anti-CYLD antibody (1:100, 4°C overnight, Gamma Bind G Sepharose beads) from precleared lysates of IFN-γ/LPS-polarized (M1) THP-1 macrophages 2 h after infection with S. aureus MW2 (MOI 5:1); IgG as negative control; detection by Western blot

Sequences of proteins named here, by UniProt entry; tags and fusion partners are left off.
UniProt Q9Y6K9: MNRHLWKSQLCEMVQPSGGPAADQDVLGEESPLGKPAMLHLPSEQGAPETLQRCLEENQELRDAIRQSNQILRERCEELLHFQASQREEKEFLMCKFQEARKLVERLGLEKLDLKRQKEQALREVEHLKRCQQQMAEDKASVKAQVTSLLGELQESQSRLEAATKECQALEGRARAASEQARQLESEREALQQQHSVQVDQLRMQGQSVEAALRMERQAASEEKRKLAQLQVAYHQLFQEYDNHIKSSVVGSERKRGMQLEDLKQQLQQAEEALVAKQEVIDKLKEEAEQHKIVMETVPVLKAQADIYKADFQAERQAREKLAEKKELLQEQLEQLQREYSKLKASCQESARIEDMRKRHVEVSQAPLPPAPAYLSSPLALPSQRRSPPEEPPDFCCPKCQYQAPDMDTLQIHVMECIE
UniProt P42224: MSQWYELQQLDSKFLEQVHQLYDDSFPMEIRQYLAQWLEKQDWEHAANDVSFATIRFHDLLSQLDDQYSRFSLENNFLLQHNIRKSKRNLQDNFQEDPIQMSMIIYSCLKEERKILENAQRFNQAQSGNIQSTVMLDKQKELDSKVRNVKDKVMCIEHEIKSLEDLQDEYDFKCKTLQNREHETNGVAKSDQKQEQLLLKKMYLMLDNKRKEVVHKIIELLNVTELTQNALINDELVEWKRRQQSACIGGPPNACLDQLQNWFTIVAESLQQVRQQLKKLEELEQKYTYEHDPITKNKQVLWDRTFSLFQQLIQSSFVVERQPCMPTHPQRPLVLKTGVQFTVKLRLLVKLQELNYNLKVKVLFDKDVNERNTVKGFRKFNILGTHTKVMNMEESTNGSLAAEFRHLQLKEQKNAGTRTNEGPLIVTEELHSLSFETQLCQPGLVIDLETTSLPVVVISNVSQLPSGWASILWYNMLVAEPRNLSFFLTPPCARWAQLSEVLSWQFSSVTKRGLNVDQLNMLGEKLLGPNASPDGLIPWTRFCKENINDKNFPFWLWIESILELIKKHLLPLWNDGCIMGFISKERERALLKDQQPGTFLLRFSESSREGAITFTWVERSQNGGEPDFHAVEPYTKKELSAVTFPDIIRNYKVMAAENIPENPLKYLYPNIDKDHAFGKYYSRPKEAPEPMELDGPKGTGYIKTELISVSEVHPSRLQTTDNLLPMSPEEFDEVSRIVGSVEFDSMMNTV

How did the binding turn out when IKKγ/NEMO (from UniProt Q9Y6K9 1-419) was run?
Its binding is “binds”.

With STAT1 (from UniProt P42224 1-750) as the substance, how does the binding read?
Its binding is “binds”.
